This is an account of results in patent US20170027893A1, “THIOSEMICARBAZONES INHIBITORS OF LYSOPHOSPHATIDIC ACID ACYLTRANSFERASE AND USES THEREOF” (H. LEE CANCER CENTER AND RESEARCH INSTITUTE, INC., priority 2014, published 2017).

Amino acid sequences for entries named in this document (tags omitted). Residues count along the entry.
UniProt O15120, 24-278 limits assumed: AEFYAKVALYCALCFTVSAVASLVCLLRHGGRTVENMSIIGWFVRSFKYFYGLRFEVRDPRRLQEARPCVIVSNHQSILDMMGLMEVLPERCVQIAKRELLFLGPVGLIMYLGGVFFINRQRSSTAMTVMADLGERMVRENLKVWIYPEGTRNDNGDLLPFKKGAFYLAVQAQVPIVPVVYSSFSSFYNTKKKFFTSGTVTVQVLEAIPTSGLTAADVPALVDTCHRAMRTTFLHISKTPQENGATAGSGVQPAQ

Structures are written as SMILES. Some entries of the source have several records that differ or are many. Only these are listed. The source may hold further records. Results that share an entry differ, and nothing given here explains why; dose, time, organism, isomer or construct need not be as stated for each record.

The target of this experiment is LPAAT-β (Homo sapiens, UniProt O15120). The experiment in a line: secondary thin layer chromatography (TLC) assay measuring fluorescent PA. The following applies: read-out: IC50 (μM) (TLC assay).

As usually defined, the IC50 is the concentration needed to halve the response being measured. `C=CCc1cc(F)cc(/C=N/NC(N)=S)c1O`: the IC50 is 4.1 µM and 24 µM.
